Test results published in patent publication US5916908A, “Pharmaceutical pyrazole compositions useful as inhibitors of protein kinases” (COR Therapeutics, Inc., priority 1995, dated 1999).

System: HR5-βR cells
Test: inhibition of cell proliferation under normal tissue culture conditions, HR5-βR

CN[C@@H]1C[C@H]2O[C@@](C)([C@@H]1OC)n1c3ccccc3c3c4c(c5c6ccccc6n2c5c31)C(=O)NC4 [Staurosporin]
HR5-βR growth inhibition compared with inhibition of PDGFR phosphorylation: lower concentrations than those required to inhibit PDGFR phosphorylation
